Source: US8551718B2 (Suven Life Science Limited, priority 2009, dated 2013)
pIC50, pKi: −log10 of the molar value.

Protein sequences, listed by entry. Tags and fused reporters are not part of them.
UniProt P28223, whole entry: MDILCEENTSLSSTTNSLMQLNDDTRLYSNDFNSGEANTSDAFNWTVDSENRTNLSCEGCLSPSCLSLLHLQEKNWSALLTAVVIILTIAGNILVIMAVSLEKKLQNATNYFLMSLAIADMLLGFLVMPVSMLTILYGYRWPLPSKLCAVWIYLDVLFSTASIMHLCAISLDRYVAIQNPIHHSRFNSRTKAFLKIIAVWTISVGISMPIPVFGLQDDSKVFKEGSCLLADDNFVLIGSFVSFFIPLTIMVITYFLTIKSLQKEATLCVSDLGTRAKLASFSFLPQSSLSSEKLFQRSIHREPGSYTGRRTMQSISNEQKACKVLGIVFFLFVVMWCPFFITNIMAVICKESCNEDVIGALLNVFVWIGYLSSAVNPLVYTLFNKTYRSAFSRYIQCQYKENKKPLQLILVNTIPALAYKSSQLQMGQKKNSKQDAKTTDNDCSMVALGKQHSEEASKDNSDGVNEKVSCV

Experiments:
5-HT2A receptor [1] = target: T1, 5-HT2A receptor (Homo sapiens, UniProt P28223); assay: Radioligand (SPA) competition binding assay, [3H]Ketanserin
5-HT2A receptor [2] = target: T1, 5-HT2A receptor; assay: CRE-Luc reporter gene functional assay in CHO-5HT2A cells; assay type: cell-based; design: expressed in transfected cells; host or cells: CHO cells (CHO-5HT2A), co-transfected with CRE-Luc reporter

pKi (5-HT2A receptor [1]): < 5.00 | pIC50 (5-HT2A receptor [2]): < 5.00 | Kb (5-HT2A receptor [2]): > 10 µM
Structure (SMILES): O=C(O)COCCN1CCN(C(c2ccccc2)c2ccc(Cl)cc2)CC1 (stereo not drawn) [Cetirizine]
